# Earlier results, collected in patent US20190160064A1, “METHODS FOR TREATING SKELETAL MUSCLE CACHEXIA ARISING FROM BURN INJURY BY ADMINISTERING PDE4B-SELECTIVE INHIBITORS” (University of Cincinnati, priority 2017, published 2019).
# At least one structure is not confirmed: it was looked up by name or label, or the drawing left a doubt.
# System: mice with burn injury
# Details: cited from earlier work
structure (smiles),measurement,value
CN1CC(=O)N2[C@H](c3ccc4c(c3)OCO4)c3[nH]c4ccccc4c3C[C@@H]2C1=O [Tadalafil],muscle atrophy,attenuate
same,muscle autophagy,attenuate
